Experimental data: patent US20140199315A1 (Biogen, published 2014)
No constants are given. Whether binding was seen depends on the method and setting. Some binding calls cover weakened binding; strength is not graded here.

Sequences of proteins named here, by UniProt entry; tags and fusion partners are left off. A change or cut given only in a name is not applied to a line headed by its entry. A line that says so, or that is headed by a name, gives the form on record, which may keep a tag or linker. Residues count along the entry.
UniProt Q96FE5: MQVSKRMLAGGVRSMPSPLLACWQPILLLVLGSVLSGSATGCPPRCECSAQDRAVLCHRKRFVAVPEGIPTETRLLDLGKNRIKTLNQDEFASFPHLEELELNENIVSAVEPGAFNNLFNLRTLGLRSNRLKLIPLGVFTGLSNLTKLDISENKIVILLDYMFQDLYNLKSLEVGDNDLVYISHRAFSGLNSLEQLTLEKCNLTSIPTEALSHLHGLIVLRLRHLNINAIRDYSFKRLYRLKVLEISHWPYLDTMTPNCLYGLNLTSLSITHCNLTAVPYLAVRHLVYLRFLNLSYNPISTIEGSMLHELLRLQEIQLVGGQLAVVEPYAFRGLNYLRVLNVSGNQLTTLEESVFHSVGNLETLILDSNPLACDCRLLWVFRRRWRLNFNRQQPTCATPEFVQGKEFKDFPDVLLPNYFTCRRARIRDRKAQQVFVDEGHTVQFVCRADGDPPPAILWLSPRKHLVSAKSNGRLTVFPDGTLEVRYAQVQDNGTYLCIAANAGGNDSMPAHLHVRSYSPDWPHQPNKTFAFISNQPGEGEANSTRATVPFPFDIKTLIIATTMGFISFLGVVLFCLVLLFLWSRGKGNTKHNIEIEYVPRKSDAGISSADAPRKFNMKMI
UniProt Q9D1T0: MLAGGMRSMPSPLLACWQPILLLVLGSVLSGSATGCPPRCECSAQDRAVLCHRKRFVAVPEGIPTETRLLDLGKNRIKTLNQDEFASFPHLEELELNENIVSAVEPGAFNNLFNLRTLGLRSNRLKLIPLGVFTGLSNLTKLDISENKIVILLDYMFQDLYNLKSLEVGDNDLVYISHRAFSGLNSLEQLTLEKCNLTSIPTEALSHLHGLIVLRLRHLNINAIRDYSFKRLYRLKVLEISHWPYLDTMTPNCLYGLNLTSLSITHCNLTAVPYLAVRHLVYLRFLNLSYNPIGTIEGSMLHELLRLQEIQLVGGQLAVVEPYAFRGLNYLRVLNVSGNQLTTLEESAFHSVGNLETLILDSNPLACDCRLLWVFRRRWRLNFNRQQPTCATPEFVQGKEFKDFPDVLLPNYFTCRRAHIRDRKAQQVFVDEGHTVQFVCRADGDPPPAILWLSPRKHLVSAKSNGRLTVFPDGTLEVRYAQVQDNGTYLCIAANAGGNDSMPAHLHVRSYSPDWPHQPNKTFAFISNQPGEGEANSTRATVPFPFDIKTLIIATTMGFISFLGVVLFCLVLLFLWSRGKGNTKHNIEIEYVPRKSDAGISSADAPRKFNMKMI
full-length murine Sp35 with HA tag, from lysate of transfected cells: residues 34-614 of Q9D1T0
mouse Sp35 protein (form in the assay not stated): residues 36-532 of Q9D1T0
UniProt Q5RDJ4: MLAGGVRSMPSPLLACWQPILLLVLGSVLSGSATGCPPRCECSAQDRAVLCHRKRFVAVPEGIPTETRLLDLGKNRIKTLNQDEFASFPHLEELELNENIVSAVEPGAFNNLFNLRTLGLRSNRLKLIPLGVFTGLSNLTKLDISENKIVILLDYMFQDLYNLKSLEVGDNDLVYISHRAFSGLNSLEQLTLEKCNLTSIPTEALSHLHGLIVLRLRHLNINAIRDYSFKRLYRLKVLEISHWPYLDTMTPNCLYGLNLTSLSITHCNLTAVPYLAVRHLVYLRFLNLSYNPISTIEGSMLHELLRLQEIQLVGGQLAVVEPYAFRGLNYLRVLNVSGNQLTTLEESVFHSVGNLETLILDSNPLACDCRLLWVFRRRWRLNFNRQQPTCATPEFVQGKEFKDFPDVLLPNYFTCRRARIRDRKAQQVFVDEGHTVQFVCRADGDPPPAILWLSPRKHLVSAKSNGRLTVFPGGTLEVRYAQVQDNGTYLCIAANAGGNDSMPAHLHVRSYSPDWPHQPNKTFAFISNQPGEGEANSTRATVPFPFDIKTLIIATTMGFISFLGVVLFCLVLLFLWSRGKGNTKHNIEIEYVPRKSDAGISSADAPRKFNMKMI

Tests used:
[1] = biological target: full-length human Sp35 with N-terminal hemagglutinin (HA) tag, from lysate of transfected COS-1 cells (human) (UniProt Q96FE5); assay: immunoprecipitation
[2] = biological target: full-length murine Sp35 with HA tag, from lysate of transfected cells (mouse) (UniProt Q9D1T0); assay: immunoprecipitation
[3] = biological target: Sp35-Fc fusion protein (human Sp35 residues 1-532 fused to hinge and Fc of human IgG1) (human) (UniProt Q96FE5); assay: immunoprecipitation
[4] = biological target: human Sp35 protein expressed on transfected cells (human) (UniProt Q96FE5); assay: FACS
[5] = biological target: AP-Sp35 (1-419) (Pongo abelii (Sumatran orangutan) (Pongo pygmaeus abelii)) (UniProt Q5RDJ4); assay: binding to Sp35 fragment
[6] = biological target: Sp35 fragment 34-417 (ELISA column of Table 3B) (Homo sapiens (Human)) (UniProt Q96FE5); assay: ELISA, truncated Sp35-Fc
[7] = biological target: human Sp35 protein (form in the assay not stated) (human) (UniProt Q96FE5); assay: Western blot
[8] = biological target: mouse Sp35 protein (form in the assay not stated) (mouse) (UniProt Q9D1T0); assay: Western blot
[9] = biological target: Sp35 fragment 34-417 (ELISA column of Table 3B) (Homo sapiens (Human)) (UniProt Q96FE5); assay: ELISA

B1: 30-C12 (Li01) (Fab, V domains shown)
VH: EVQLLESGGGLVQPGGSLRLSCAASGFTFSKYQMTWVRQAPGKGLEWVSSIYPSGGNTVYADSVKGRFTISRDNSKNTLYLQMNSLRAEDTAVYYCASGTTEAVFDYWGQGTLVTVSS
VL: DIQMTQSPSSLSASVGDRVTITCQASQDISNYLNWYQQKPGKAPKLLIYDASNLETGVPSRFSGSGSGTDFTLTISSLQPEDFATYYCQQADRFPAVTFGGGTKVEIKR
**Q.** What does the source list for B1?
**A.** binding [1]: binds; binding [2]: binds

B2: 30-A11 (Li05) (Fab, V domains shown)
VH: EVQLLESGGGLVQPGGSLRLSCAASGFTFSAYAMGWVRQAPGKGLEWVSSIVSSGGYTDYADSVKGRFTISRDNSKNTLYLQMNSLRAEDTAVYYCAREGDHNAFDIWGQGTMVTVSS
VL: QSVLTQPPSVSVAPGQTARISCGGDNIGSKSVHWYQQRPGQAPVLVVYDDYDRPSGIPERFSGSNSGDTAILTITRVEVGDEADFYCQVRDSRTEERVFGGGTKVTVLG
**Q.** With B2 as the binder, how does the binding [3] read?
**A.** Its binding is “binds”.

**Q.** And the binding [1]?
**A.** Its binding is “binds”.

**Q.** What about the binding [2] of the same binder?
**A.** The binding was “binds”.

**Q.** And the binding [4]?
**A.** Its binding is “binds”.

B3: 34-F02 (Li06) (Fab, V domains shown)
VH: EVQLLESGGGLVQPGGSLRLSCAASGFTFSEYPMDWVRQAPGKGLEWVSSIYSSGGSTVYADSIKGRFTISRDNSKNTLYLQMNSLRAEDTAVYYCAREGDSDAFDIWGQGTMVTVSS
VL: DIQMTQSPSTLSASVGDRVTITCRASQSISSWLAWYQQKPGKAPNLLIYAASSLRTGVPSRFRGSGSGTDFTLTISSLQPEDFATYYCLQDYSYPLTFGQGTKLEIKR
**Q.** Which results are given for B3?
**A.** binding [1]: binds; binding [2]: binds

B4: 29-E07 (Li07) (Fab, V domains shown)
VH: EVQLLESGGGLVQPGGSLRLSCAASGFTFSMYFMGWVRQAPGKGLEWVSSISPSGGFTSYADSVKGRFTISRDNSKNTLYLQMNSLRAEDTAVYYCARDRHAFDIWGQGTMVTVSS
VL: QSELTQPPSVSVSPGQTAIITCSGDQLGDKHVAWYQQKPGQSPVLVIYLDIKRPAGISERFSGSNSGNTATLTIRGTQAMDEADYYCQAWDIKTVFGGGTKLTVLS
**Q.** How did the binding [1] turn out when B4 was run?
**A.** Its binding is “binds”.

**Q.** And the binding [2]?
**A.** Its binding is “binds”.

B5: 34-G04 (Li08) (Fab, V domains shown)
VH: EVQLLESGGGLVQPGGSLRLSCAASGFTFSHYEMVWVRQAPGKGLEWVSSIRSSGGATKYADSVKGRFTISRDNSKNTLYLQMNSLRAEDTAVYYCAKESPDDYFDYWGQGTLVTVSS
VL: DIQMTQSPSSLSASVGDRVTITCQASQDISYYLNWYQQKPGKAPKVLIYDVSNLQTGVPSRFSGSASATDFTLTISSLQPEDIATYYCQQSDNLPLTFGGGTKVEIKR
**Q.** Which results are given for B5?
**A.** binding [3]: binds; binding [1]: binds; binding [2]: binds

B6: 30-B01 (Li11) (Fab, V domains shown)
VH: EVQLLESGGGLVQPGGSLRLSCAASGFTFSSYAMYWVRQAPGKGLEWVSSISTSGGYTGYADSVKGRFTISRDNSKNTLYLQMNSLRAEDTAVYYCARDTSDNDYYYMDVWGKGTTVTVSS
VL: DIQMTQSPSSVSAPIGDRVTITCRASQEIANYLAWYQQKPGKAPKLLIYDTYTLQTDVPPRFSGSGSGTDFTLTISSLQPEDTATYFCQQADIFPLSFGGGTKVEIKR
**Q.** What does the source list for B6?
**A.** binding [1]: binds; binding [2]: binds; binding [4]: binds

B7: D05 (Li05 Variable Region) (antibody, V domains shown)
VH: EVQLLESGGGLVQPGGSLRLSCAASGFTFSAYAMGWVRQAPGKGLEWVSSIVSSGGYTDYADSVKGRFTISRDNSKNTLYLQMNSLRAEDTAVYYCAREGDHNAFDIWGQGTMVTVSS
VL: QSVLTQPPSVSVAPGQTARISCGGDNIGSKSVHWYQQRPGQAPVLVVYDDYDRPSGIPERFSGSNSGDTAILTITRVEVGDEADFYCQVRDSRTEERVFGGGTKVTVLG
**Q.** Which binding [5] does the source give for B7 here?
**A.** Its binding is “binds”.

**Q.** And the binding [4]?
**A.** The binding was “binds”.

B8: D07 (antibody, V domains shown)
VH: EVQLLESGGGLVQPGGSLRLSCAASGFTFSMYFMGWVRQAPGKGLEWVSSISPSGGFTSYADSVKGRFTISRDNSKNTLYLQMNSLRAEDTAVYYCARDRHAFDIWGQGTMVTVSS
VL: QSELTQPPSVSVSPGQTAIITCSGDQLGDKHVAWYQQKPGQSPVLVIYLDIKRPAGISERFSGSNSGNTATLTIRGTQAMDEADYYCQAWDIKTVFGGGTKLTVLS
**Q.** Which binding [4] does the source give for B8 here?
**A.** Its binding is “binds”.

B9: D08 (Li08 Variable Region) (antibody, V domains shown)
VH: EVQLLESGGGLVQPGGSLRLSCAASGFTFSHYEMVWVRQAPGKGLEWVSSIRSSGGATKYADSVKGRFTISRDNSKNTLYLQMNSLRAEDTAVYYCAKESPDDYFDYWGQGTLVTVSS
VL: DIQMTQSPSSLSASVGDRVTITCQASQDISYYLNWYQQKPGKAPKVLIYDVSNLQTGVPSRFSGSASATDFTLTISSLQPEDIATYYCQQSDNLPLTFGGGTKVEIKR
**Q.** How did the binding [4] turn out when B9 was run?
**A.** Its binding is “binds”.

B10: D10 (antibody, V domains shown)
VH: EVQLLESGGGLVQPGGSLRLSCAASGFTFSTYPMVWVRQAPGKGLEWVSWIGPSGGVTAYADSVKGRFTISRDNSKNTLYLQMNSLRAEDTAVYYCARPYSSGWWDFDLWGRGTLVTVSS
VL: DIQMTQSPSSMSASVGDTVTITCRASQGIGNWLAWYQQKPGKAPTLLIYAASSLESGVPSRFTGSGSSSGIDFTLTISDLHPEDLATYYCQQAQTFPLTFGGGTRVDLKR
**Q.** For B10, which binding [4] is on record?
**A.** Its binding is “binds”.

B11: 2F3 (antibody, V domains shown)
VH: EVKLEESGGGLVQPGGSMKLSCAASGFTFSDAWLDWVRQSPEKGLEWVAEIRSKANNHATNYAESVKGRFTISRDDSKSSVYLQMNSLRAEDTGIYFCTPSFAYWGQGTTVTVSS
VL: DIQMTQSPASLSASVGETVTITCRASGNIYNYLAWFQQKQGKSPQLLVYNAKTLPDGVPSRFSGSGSGTQYFLKINSLQPEDFGSYYCQHFWAIPYTFGGGTKLEIKR
notes: murine hybridoma monoclonal antibody; also called monoclonal antibody 2F3; MAb 2F3
**Q.** B11 was tested. Which binding [6] did it give?
**A.** Its binding is “binds”.

**Q.** What about the binding [7] of the same binder?
**A.** Its binding is “binds”.

**Q.** What about the binding [8] of the same binder?
**A.** Its binding is “binds”.

**Q.** What about the binding [9] of the same binder?
**A.** The binding was “binds”.
